According to patent US20070128727A1, “Methods for differentiation of embryonic stem cells” (priority 2005, published 2007):
For at least one compound, name, drawing or mass did not settle the structure.

Columns and labels:
[1] = tested on: embryoid body cultures from E14Tg2A cells; assay: Osteoblast differentiation, alkaline phosphatase (ALP) activity staining; type: cell-based, mouse; settings: DEX 10^-8 M from day 17, stained at day 31, vs cultures without DEX
[2] = tested on: fully differentiated and induced cells (adipocytes from MESC); assay: Hormone induced lipolysis (glycerol release into medium); type: cell-based, mouse; settings: 4 hr in glucose-free DMEM; isoproterenol increasing concentrations; dibutyryl-cAMP 10^-3 M; forskolin 4×10^-5 M
Procedure: FIG. 4. Hormone induced lipolysis. Fully differentiated and induced cells were treated with increasing concentrations of isoproterenol in glucose-free DMEM containing 30 mg/ml of fatty acid free albumin and adenosine deaminase (1 U/ml) for 4 hr. The control samples were incubated with 10^−5 M N-(2-phenylisopropyl)-adenosine to replace the endogenous adenosine. The amount of glycerol in the medium was measured using a calorimetric kit. Differentiated and induced cells incubated with isoproterenol in 35 mm wells. B. Differentiated cells with or without induction cultures were incubated with 10^−3 M dibutyryl-cAMP or 4×10^−5 M forskolin in 60 mm diameter culture plates.

Row | SMILES | ALP activity (histochemical staining, blue color) [1] | glycerol release (lipolysis) [2]
1 | C[C@@H]1C[C@H]2[C@@H]3CCC4=CC(=O)C=C[C@]4(C)[C@@]3(F)[C@@H](O)C[C@]2(C)[C@@]1(O)C(=O)CO [DEX, dexamethasone] | higher ALP activity | –
2 | C=C[C@@]1(C)CC(=O)[C@]2(O)[C@@]3(C)[C@@H](O)CCC(C)(C)[C@@H]3[C@H](O)[C@H](OC(C)=O)[C@@]2(C)O1 [forskolin] | – | dose-dependent increase of glycerol release
